Values quoted from earlier work as cited in US20240315283A1, “ISOFUCOSTEROL A KEY NUTRIENT FOR PHYTOSTEROL EATING ANIMALS SUCH AS POLLEN EATING AND ALGAE-EATING AND PLANKTON EATING ORGANISMS” (APIX BIOSCIENCES, priority 2021, published 2024).

System: Honeybee worker
Settings: cited from earlier work

## C/C=C(/CC[C@@H](C)[C@H]1CC[C@H]2[C@@H]3CC=C4C[C@@H](O)CC[C@]4(C)[C@H]3CC[C@]12C)C(C)C [isofucosterol, Isofucosterol]
Honeybee worker, percentage of total bee-relevant phytosterols
  Isofucosterol (% total): 28.73 % total
Dry weight of a honeybee
  isofucosterol as share of dry weight: 0.02-0.06%
honeybees
  isofucosterol share of total corporeal sterols: 10-50%
